From PubChem BioAssay AID1347076 (National Center for Advancing Translational Sciences (NCATS), 2019)
Among all 400,000 compounds or so, about 13,000 (3.2%) were called active. The shares of active, inactive and inconclusive entries below differ from those in the screen. Calls come from the whole dose curve; as a rule, active = well fitted cell-killing curve with a large enough effect; inconclusive = small, poorly fitted or top-dose-only effect, or effect the other way; inactive = flat fitted curve, though single readings scatter. Where the call is inconclusive, the potency comes from a doubtful curve fit. More than one record can exist for a structure, and the calls need not agree.

Experiment: qHTS assay for MDR1-selective chemotherapeutics: Primary screen using the drug-selected MDR subline cells KB-V1; note: nearly all actives have a fitted effect of over 60% in size
Conditions: KB-V1 MDR cells viability, CellTiter-Glo, 72 h; activity change, negative = cytotoxicity: at 46.1 µM (top of the series)
In short: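 Drug-selected KB-V1 cells, grown in DMEM lacking phenol red with 10% FBS, receive compound titrations; after three days at 37 degrees C, surviving cell ATP is quantified by CellTiter-Glo luminescence and responses normalized and curve-fitted.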
% is set by controls: 0 for no effect and ±100 for the full control effect; potency is the fitted concentration of half-maximal effect.

Compound	Potency	activity change, negative = cytotoxicity
O=C(Nc1ccc(F)cc1F)c1ccc(-n2cncn2)nc1	inconclusive: 18.4 µM [cytotoxic, partial curve, poor fit]	
O=C(NCC(c1cccnc1)N1CCN(c2ccccc2)CC1)C1CCCCC1 (stereo not given)	active: 20.6 µM	
O=c1c2c(ncn1Cc1ccccc1)nc1n2CCC1	inconclusive: 20.6 µM [rising, single point]	
CCN(CC)S(=O)(=O)c1cccc(NC(=O)c2ccc(C#N)cc2)c1	inconclusive: 20.6 µM [cytotoxic, partial curve, poor fit]	
CCCCc1nc2ccccc2c(N)c1CCC (tested in a mixture with another compound)	inconclusive: 29.1 µM [cytotoxic, single point]	
COCCNCCCCOc1ccccc1-c1ccccc1	inconclusive: 8.2 µM [cytotoxic, partial curve]	
Cn1c(=O)oc2ccc(C(=O)CSc3nnnn3-c3ccccc3)cc21	inconclusive: 16.4 µM [cytotoxic, partial curve, poor fit]	
CCN(CC)CCn1c(=N)n(CC(=O)c2ccc(Br)s2)c2ccccc21	inconclusive: 23.1 µM [cytotoxic, single point]	
CCCCSCCCNC(=O)C1CCC(CNS(=O)(=O)c2ccc(NC(C)=O)cc2)CC1 (stereo not given)	inconclusive: 29.1 µM [rising, single point]	
CCOC(=O)c1c(NC(=O)COc2ccccc2OCC)sc2c1CC(C)(C)NC2(C)C	inconclusive: 29.1 µM [cytotoxic, single point]	
CCCN(CCC)CCNS(=O)(=O)c1ccc2c(c1)CCN2C(=O)C1CCC1	inconclusive: 13 µM [cytotoxic, partial curve]	
NC(=O)c1ccc(NC(=O)CCCN2C(=O)NC3(CCCC3)C2=O)cc1	inconclusive: 29.1 µM [cytotoxic, single point]	
N#Cc1c(N2CCN(C(=O)c3ccco3)CC2)nc(-c2ccccc2)c2c1CCCC2	active: 20.6 µM	
COc1ccc(CCNC(=O)c2ccc3nc(N4CCCCC4)sc3c2)cc1OC	active: 18.4 µM	
COc1ccc(/C=N/Nc2cc(C)nc(-n3nc(C)cc3C)n2)c(OC)c1	inconclusive: 3.26 µM [cytotoxic, full curve]	
COc1ccc(C2=NS(=O)(=O)N(C)C(C(=O)N3CCc4ccccc4C3)=C2)cc1OC	inconclusive: 25.9 µM [cytotoxic, single point]	
CC(C)(C)c1nn(-c2ccccc2)c2[nH]c(=O)c(CNCc3ccco3)cc12	inconclusive: 29.1 µM [cytotoxic, single point]	
Cc1cc(C)cc(NC(=O)N2CCN(Cc3ccc4c(c3)OCO4)CC2)c1	inconclusive: 29.1 µM [cytotoxic, single point]	
COc1ccc(CC(C)CC(=O)NCCc2ccc(OC)c(OC)c2)cc1 (stereo not given)	inconclusive: 29.1 µM [cytotoxic, single point]	
N#Cc1ccc(CN2CCN(C(=O)c3ccc(S(=O)(=O)N4CCCCCC4)cc3)CC2)cc1		inactive: -13.1%
Cc1ccc(C(=O)c2nc(C(=O)NCCO)nc3ccccc23)cc1		inactive: 16.3%
CC(C)(C)OC(=O)N1CCC(c2c(C(=O)NCCN3CCOCC3)cnn2-c2cccc(Cl)c2)CC1		inactive: -0.328%
Cc1cc2c(C)nc(N/N=C/c3ccccc3)nc2o1	active: 23.1 µM	
COc1cc2c(cc1OC)CN(C(=O)C(CCSC)NS(=O)(=O)c1ccc(C)cc1)CC2 (stereo not given)		inactive: -0.638%

An excerpt of these results, in markdown:

| Compound | Potency | activity change, negative = cytotoxicity |
| --- | --- | --- |
| COCCNCCCCOc1ccccc1-c1ccccc1 | inconclusive: 8.2 µM [cytotoxic, partial curve] |  |
| CCOC(=O)c1c(NC(=O)COc2ccccc2OCC)sc2c1CC(C)(C)NC2(C)C | inconclusive: 29.1 µM [cytotoxic, single point] |  |
| CC(C)(C)c1nn(-c2ccccc2)c2[nH]c(=O)c(CNCc3ccco3)cc12 | inconclusive: 29.1 µM [cytotoxic, single point] |  |

Continued.

Compound	Potency	activity change, negative = cytotoxicity
CCOC(=O)C1(Cc2cccc(Cl)c2)CCCN(C(=O)c2ccnn2C)C1 (stereo not given)	inconclusive: 8.2 µM [cytotoxic, partial curve]	
COC(=O)c1ccc(N2C(c3cc(OC)cc(OC)c3)=Cc3ccc(-c4cccnc4)cc3C2CC(=O)C2CC2)cc1 (stereo not given)		inactive: 17.3%
CC(C)c1cccc(-c2csc(C(O)c3ccccc3)n2)c1 (stereo not given)	inconclusive: 29.1 µM [cytotoxic, partial curve, poor fit]	
CC(C)(C)OC(=O)C[C@@H]1C/C=C\C[C@@H](CC(=O)N(CCO)Cc2ccccc2)C(=O)NC[C@@H](c2ccccc2)OC1=O	inconclusive: 29.1 µM [rising, single point]	
Cc1ccc(S(=O)(=O)NCC(c2ccco2)N2CCc3ccccc32)cc1 (stereo not given)	inconclusive: 29.1 µM [cytotoxic, single point]	
CCCN1CCN(C(=O)Nc2ccc(C(=O)OCC)cc2)CC1	inconclusive: 6.51 µM [cytotoxic, partial curve]	
COC(=O)c1ccc2nc(-c3ccccc3)c(Cc3ccsc3)n2c1		inactive: 0%
Cc1ccc(CNC(=O)CNC(=S)N(Cc2ccccc2)Cc2ccccc2F)cc1	inconclusive: 13 µM [cytotoxic, partial curve]	
COc1cc(C2=NOC(C(=O)Nc3cc(C)on3)C2)cc(OC)c1OC (stereo not given)	inconclusive: 18.4 µM [cytotoxic, partial curve, poor fit]	
CCCCCn1ccc(=O)c2c(C(F)(F)F)nccc21	inconclusive: 16.4 µM [cytotoxic, partial curve]	
CCOc1ccccc1OCC(=O)OCC(=O)NNC(=O)c1ccc([N+](=O)[O-])cc1	inconclusive: 5.17 µM [rising, full curve, poor fit]	
COc1ccccc1C(=O)N1CCN(Cc2cccnc2)CC1		inactive: -0.404%
Cc1ccc(NC(=S)NC2CC3CCCC(C2)N3Cc2ccco2)cc1 (stereo not given)	inconclusive: 23.1 µM [cytotoxic, partial curve, poor fit]	
Cc1c(C(=O)Nc2ccc(F)c(Cl)c2)sc2nc3n(c(=O)c12)CCC3	inconclusive: 16.4 µM [cytotoxic, single point]	
Cc1ccc(SSc2cc(C)ccc2N)c(N)c1		inactive: -17.5%
O=c1[nH]c2cc(Cl)c(Br)cc2o1	inconclusive: 29.1 µM [cytotoxic, single point]	
O=[N+]([O-])c1cc(C(F)(F)F)ccc1NCCCCNS(=O)(=O)c1ccc(Cl)cc1	active: 20.6 µM	
Nc1ccccc1Oc1ccc2ccccc2c1		inactive: -3.35%
Cc1nn(C)c(NC(=O)c2ccc([N+](=O)[O-])cc2)c1Cl	inconclusive: 23.1 µM [cytotoxic, single point]	
C/C(=N\Nc1ncc(Cl)cc1Cl)c1ccc(N2CCOCC2)cc1	inconclusive: 20.6 µM [cytotoxic, single point]	
COc1ccc(CNC(=O)C2CC(O)CN2C(=O)Nc2ccccc2)cc1 (stereo not given)	inconclusive: 29.1 µM [rising, single point]	
CCCCC(=O)Nc1ccnc(-c2cccnc2)n1	active: 16.4 µM	
COc1ccc(-c2cn(Cc3cccc(OC)c3)nn2)cc1	active: 10.3 µM	
O=C(c1cnn(C(=O)COc2ccc(Cl)cc2)c1)c1ccccc1O		inactive: -19.9%

Compound	Potency	activity change, negative = cytotoxicity
COC(=O)C=C1CCC2C3CCC4=CC(=O)C(Br)CC4(C)C3C(=O)CC12C (stereo not given)	inconclusive: 18.4 µM [cytotoxic, partial curve, poor fit]	
COc1ccccc1N1CCN(c2ncnc3c2cnn3-c2ccc(C)cc2)CC1		inactive: 12.1%
Cc1ccc(-n2c(CCc3ccccc3)n[nH]c2=S)cc1C		inactive: -3.72%
CCCCCSc1nnc2c(n1)[nH]c1c(C)cccc12	inconclusive: 23.1 µM [cytotoxic, single point]	
COc1ccc(C2=NOC(C(=O)NCc3cccs3)C2)cc1 (stereo not given)	active: 2.91 µM	
Cc1ccc(C(NC(=O)C2CCN(Cc3ccc(Cl)c(Cl)c3)CC2)c2ccccn2)cc1 (stereo not given)	inconclusive: 11.6 µM [cytotoxic, partial curve, poor fit]	
CN(C)CCNc1ncnc2c1ncn2[C@H]1CN(Cc2ccc3c(c2)OCO3)C[C@@H](CO)O1		inactive: 1.18%
COc1ccccc1-c1cc(C(=O)N2CCCc3ccccc32)no1	inconclusive: 13 µM [cytotoxic, partial curve]	
Cn1nnnc1Sc1ncnc2scc(-c3ccccc3)c12	inconclusive: 20.6 µM [cytotoxic, single point]	
CSc1ccc(C(=O)C2CCCN(S(=O)(=O)N(C)C)C2)cc1 (stereo not given)	active: 20.6 µM	
CCCCCCCCN1C(=O)[C@H](CC(=O)NCCCC)C[C@@]2(C(=O)OCC)CCCC=C12	active: 20.6 µM	
COc1ccc(NC(=O)C2(C)CCN2CCOc2ccccc2)cc1OC (stereo not given)	inconclusive: 9.2 µM [cytotoxic, partial curve]	
COc1cc(/C=C(\C#N)c2ccccn2)cc(OC)c1O	inconclusive: 3.26 µM [cytotoxic, full curve]	
COc1cc2c(cc1NC(=O)c1ccncc1)oc1ccccc12		inactive: -20.1%
Cn1ccc2c(-c3cncc4ccccc34)cc3c(c21)C1CCC3O1 (stereo not given)	inconclusive: 29.1 µM [cytotoxic, single point]	
Cc1sc2ncnc(SCC(=O)N3CCCC3)c2c1C		inactive: -9.55%
COc1cccc(NC(=O)CN(C)C(=O)CC2Sc3ccccc3NC2=O)c1 (stereo not given)	active: 23.1 µM	
CCOC(=O)C1CCCN(Cc2cc(=O)oc3cc(C)c(C(C)C)cc23)C1 (stereo not given)	inconclusive: 14.6 µM [cytotoxic, partial curve]	
COc1ccc(NC(=O)c2cc(-c3ccc(F)cc3OC(C)C)n[nH]2)c(OC)c1	inconclusive: 20.6 µM [cytotoxic, single point]	
CN(C)C=NC1=NN(c2cccc(C(F)(F)F)c2)CC1	active: 2.06 µM	
COC(=O)c1ccc(Cn2c(C)c(C(=O)NCc3ccc(Cl)c(Cl)c3)sc2=O)o1	inconclusive: 23.1 µM [cytotoxic, partial curve]	
COc1ccc(C(=O)Nc2ccc(N3CCCCCC3)cc2)cc1S(=O)(=O)N1CCOCC1	inconclusive: 32.6 µM [cytotoxic, partial curve, poor fit]	
